This is one part of the list. The main result of the screen is listed elsewhere. These columns were measured beside it and carry no call. Compounds called inactive in the main read-out are mostly missing here. The note in brackets gives the kind of curve behind each potency; many fits are weak.
Assay: qHTS Assay to Find Inhibitors of Chronic Active B-Cell Receptor Signaling
Conditions: ABC-DLBCL IkBa-CBG/CBR reporter, luminescence ratio (green luciferase fused to IkBa over red control in TMD8 lymphoma cells), 4 h
Summary of the method: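 TMD8 human ABC-DLBCL cells with doxycycline-inducible IκBα–green luciferase fusion and unfused red luciferase, in 0.5% FBS medium; compounds up to 46 uM, 4 h at 37C. Green/red luminescence ratio, filter-overlap corrected, fitted to concentration-response curves.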

[1] = measured here: CBR red luminescence, cell number
[2] = measured here: IkBa-CBG green luminescence

Row | Compound | AC50 [1] | AC50 [2]
1 | Cc1ccc(C(=O)N/N=C/c2c[nH]c3ccccc23)o1 | 15.8 µM [falling, single point] | 
2 | O=C(CN1C(=O)NC2(CCc3ccccc32)C1=O)Nc1ccccc1C(F)(F)F (stereo unspecified) | 0.411 µM [falling, partial curve, poor fit] | 
3 | Cn1c(CC(=O)Nc2ccccc2)nnc1SCC(=O)Nc1ccc(N2CCOCC2)cc1 | 11.2 µM [falling, partial curve, poor fit] | 
4 | CCCCN=C1NN=C(c2ccc(C)c(C)c2)CS1 | 22.4 µM [falling, single point] | 
5 | CC(C)(C)NC(=O)CN(C(=O)CS(=O)CC(=O)Nc1ccc(F)cc1)c1ccc2c(c1)OCCO2 (stereo unspecified) | 0.0891 µM [rising, full curve, poor fit] | 
6 | COc1cccc(Nc2nc(-c3ccc(O)cc3)cs2)c1 | 3.55 µM [falling, partial curve, poor fit] | 
7 | CC(C)CN(C(=O)C(c1ccccc1)c1ccccc1)c1c(N)n(CC(C)C)c(=O)[nH]c1=O | 12.6 µM [falling, partial curve] | 
8 | CC(=O)c1cc2c(cc1NC(=O)c1ccco1)OCCO2 | 0.708 µM [falling, full curve, poor fit] | 
9 | COc1ccc(-n2cnc3cc(C(=O)NCCC4=CCCCC4)ccc32)cc1 | 35.5 µM [rising, single point] | 
10 | CCOc1cc(C2NC(=O)NC(C)=C2C(=O)OC(C)CC)cc(Br)c1O (stereo unspecified) | 4.47 µM [rising, partial curve] | 
11 | Cc1ccc(S(=O)(=O)N(C)C)cc1NC(=O)COC(=O)c1c(C)noc1C | 8.2 µM [falling, partial curve] | 
12 | Nc1ncnc2c1ncn2[C@@H]1O[C@H](CNC(=O)[C@@H]2CCN2)[C@@H](O)[C@H]1O | 16.4 µM [rising, single point] | 
13 | C=CCOc1ccc(C2=NOC(C(=O)Nc3ccc4c(c3)OCCO4)C2)cc1OC (stereo unspecified) | 35.5 µM [falling, single point] | 
14 | CC(C)CCOCC(=O)Nc1cccc(C(=O)O)c1 | 10 µM [falling, partial curve] | 
15 | Cc1cc2nc(C)n(CCCNC(=O)Nc3ccccc3)c2cc1C | 29.1 µM [rising, single point] | 
16 | COc1ccccc1CC(=O)O/N=C(\N)c1ccccn1 | 0.562 µM [rising, partial curve, poor fit] | 
17 | CCOC(=O)c1ccc(NC(=O)c2cc(F)c(F)cc2Cl)cc1 | 28.2 µM [rising, single point] | 
18 | O=C(N/N=C1\CCCc2ccccc21)c1ccccc1[N+](=O)[O-] | 6.51 µM [falling, full curve] | 
19 | Cc1ccc(N(CC(=O)NCc2ccco2)C(=O)CCC(=O)Nc2ccccn2)c(C)c1 | 2.82 µM [falling, partial curve, poor fit] | 
20 | O=c1[nH]n2c(=O)c3c([nH]c2c1N=Nc1ccccc1)CCC3 | 18.4 µM [falling, single point] | 
21 | O=C(c1ccco1)N1CCN(C(=O)c2cc3c(s2)-c2ccccc2OC3)CC1 | 29.1 µM [falling, single point] | 

Record cards, as listed above.
Cc1cc2nc(C)n(CCCNC(=O)Nc3ccccc3)c2cc1C is entered as AC50 [1]: 29.1 µM [rising, single point]
O=c1[nH]n2c(=O)c3c([nH]c2c1N=Nc1ccccc1)CCC3 is entered as AC50 [1]: 18.4 µM [falling, single point]
Cc1ccc(S(=O)(=O)N(C)C)cc1NC(=O)COC(=O)c1c(C)noc1C is entered as AC50 [1]: 8.2 µM [falling, partial curve]
O=C(c1ccco1)N1CCN(C(=O)c2cc3c(s2)-c2ccccc2OC3)CC1 is entered as AC50 [1]: 29.1 µM [falling, single point]

Carrying on.

Row | Compound | AC50 [1] | AC50 [2]
22 | COc1ccc(CN2CCN(C(=O)CC(C)C)CC2)cc1Br | 35.5 µM [falling, single point] | 
23 | COc1ccc(/C=C2/SC(=O)N(CCC(=O)Nc3ccccc3C(=O)O)C2=S)cc1 | 1.41 µM [falling, full curve] | 
24 | Cn1cccc1Cc1nnc(SCC(=O)NCc2ccc3c(c2)OCO3)n1CCc1ccccc1 | 18.4 µM [falling, partial curve, poor fit] | 
25 | CCCN(CCC)C(=O)CSc1nc2ccccc2c(=O)n1C1CCCC1 | 23.1 µM [falling, single point] | 
26 | C/C(=N\NC(=O)c1cccc(N/N=C(\C)c2ccccc2)c1)c1ccccc1 | 7.31 µM [falling, partial curve] | 
27 | CC(=O)Nc1ccc(NC(=O)CSc2nc3ccccc3c(=O)n2CCCN2CCOCC2)cc1 | 5.8 µM [rising, full curve] | 
28 | Cc1cccc(CSc2nc3c(c(=O)n2C)SCC3)c1 | 12.6 µM [falling, single point] | 
29 | O=C(COC(=O)c1cnccn1)Nc1ccc2c(c1)OCO2 | 0.651 µM [rising, full curve, poor fit] | 
30 | Cc1nn(CC(=O)Nc2nnc(C(C)C)s2)c(=O)c2ccccc12 | 7.08 µM [rising, partial curve, poor fit] | 
31 | Cc1ccc(-n2c(C)cc(/C=C(\C#N)C(=O)NCC3CCCO3)c2C)cc1 (stereo unspecified) | 3.16 µM [rising, single point] | 
32 | c1ccc(-c2nc(NCc3ccco3)c3ccccc3n2)nc1 | 35.5 µM [falling, partial curve, poor fit] | 
33 | COc1ccc(C(=O)O/N=C(/c2ccccc2)c2ccncc2)cc1 | 11.2 µM [falling, partial curve] | 22.4 µM [falling, single point]
34 | CCOc1ccc2nc(NCCCNS(=O)(=O)c3ccc(C)cc3)c(C#N)cc2c1 | 18.4 µM [rising, partial curve, poor fit] | 
35 | CC1CCCN(S(=O)(=O)c2ccc3c(c2)C(C)(C)C(=O)N3C)C1 (stereo unspecified) | 3.55 µM [rising, single point] | 
36 | Cc1cc2nc(-c3ccc[nH]c3=O)n(Cc3ccc(F)cc3)c2cc1C | 6.31 µM [falling, full curve, poor fit] | 
37 | COc1cccc(CNC(=O)c2ccc(C3SCCS3)cc2)c1 | 5.62 µM [falling, partial curve] | 
38 | Cc1ccc2nc(NC(=O)C3CCCN(S(=O)(=O)c4cccc5nonc45)C3)sc2c1 (stereo unspecified) | 0.631 µM [falling, full curve, poor fit] | 
39 | O=C1C=C(c2ccc(O)cc2)C[C@@H](c2ccc(Cl)cc2)C1 | 20.6 µM [falling, single point] | 
40 | c1ccc2[nH]c3cc4ncnc4cc3nc2c1 | 7.31 µM [falling, partial curve] | 
41 | COc1cc(-c2ccc3oc(-c4ccsc4)cc(=O)c3c2)cc(OC)c1OC | 20.6 µM [falling, partial curve, poor fit] | 
42 | Cc1ccc(S(=O)(=O)c2nc(-c3ccccc3)oc2NCCN2CCOCC2)cc1 | 0.517 µM [falling, partial curve, poor fit] | 

Row | Compound | AC50 [1] | AC50 [2]
43 | Cc1cccc(N2CC(C(=O)Nc3ccc(N4CCOCC4)cc3)CC2=O)c1C (stereo unspecified) | 4.11 µM [rising, full curve] | 
44 | CN(CC(=O)Nc1ccc(N2CCOCC2)cc1)C(=O)CSc1ccccc1F | 0.058 µM [rising, full curve, poor fit] | 
45 | CC(C)NC(=S)N=Nc1c(O)[nH]c2ccc([N+](=O)[O-])cc12 | 6.31 µM [rising, partial curve] | 7.08 µM [falling, partial curve, poor fit]
46 | COc1ccccc1CN(C)C(=O)c1cc(-c2cc(OC)c(OC)c(OC)c2)nc2ccccc12 | 14.1 µM [falling, single point] | 
47 | N#CCCN(CCC#N)S(=O)(=O)c1ccc(C(=O)Nc2nc(-c3ccccc3)c(C(=O)c3ccccc3)s2)cc1 | 1.12 µM [falling, full curve, poor fit] | 
48 | COc1ccccc1N1CCN(CC(=O)Nc2ccc(-n3cnnn3)cc2)CC1 | 11.2 µM [rising, partial curve, poor fit] | 
49 | CC(Nc1ncnc2c1cnn2-c1cccc(Cl)c1)c1ccccc1 (stereo unspecified) | 14.1 µM [falling, single point] | 
50 | CCOc1cc(/C=C2\C(=O)N(c3ccc(C(N)=O)cc3)N=C2C)ccc1OC(=O)c1cccs1 | 3.55 µM [falling, partial curve, poor fit] | 
51 | COc1cccc(OC)c1C(=O)Nc1nc(COc2ccccc2)cs1 | 5.01 µM [falling, partial curve, poor fit] | 
52 | O=C(NC1CCCCC1)c1ccc(-c2ccccc2F)o1 | 20.6 µM [falling, partial curve, poor fit] | 
53 | CCOC(=O)NC(NCc1ccccc1)(C(F)(F)F)C(F)(F)F | 23.1 µM [falling, single point] | 
54 | COc1ccc(-c2cnnc(N/N=C/c3ccc(O)c(OC)c3)n2)cc1 | 8.2 µM [falling, partial curve] | 
55 | CCNc1nn2ccccc2c1/C=C(\C#N)C(=O)OCC | 2.51 µM [falling, full curve, poor fit] | 
56 | COc1ccc2cc(C3OCCO3)c(Cl)nc2c1 | 6.31 µM [rising, single point] | 
57 | COc1ccc(/C=C2\SC(=S)N(CCCC(=O)Nc3ccc(O)cc3)C2=O)cc1 | 1.12 µM [falling, full curve] | 
58 | CCOc1ccc(-c2csc(NC(=O)CSC3=NC(=O)CN3C(C)=O)n2)c2ccccc12 | 29.1 µM [rising, single point] | 18.4 µM [falling, single point]
59 | Clc1ccc(Nc2ncnc3ccc(Br)cc23)cc1 | 35.5 µM [falling, single point] | 
60 | CCN(C(=O)CSc1nc2ccccc2c(=O)n1-c1ccc(C)cc1)C1CCS(=O)(=O)C1 (stereo unspecified) | 11.2 µM [falling, partial curve, poor fit] | 
61 | Cc1noc(C)c1NC(=O)Nc1cccc2c1O[C@H](CN(C)C(=O)Nc1ccccc1)[C@@H](C)CN([C@H](C)CO)C2=O | 0.184 µM [rising, full curve, poor fit] | 
62 | Cc1ccccc1OC1C(=O)N(Cc2ccc3c(c2)OCO3)C1c1sccc1C (stereo unspecified) | 7.08 µM [falling, partial curve, poor fit] | 11.2 µM [rising, partial curve, poor fit]

— PubChem BioAssay AID493014 (National Center for Advancing Translational Sciences (NCATS), 2011)
